Consider 39 targets from the supplement of paper PMC10849652.

Protein sequences, listed by entry. Tags and fused reporters are not part of them. Lines headed by an entry give the natural chain unless they say otherwise; changes in a name come on top.
UniProt Q8WYQ5: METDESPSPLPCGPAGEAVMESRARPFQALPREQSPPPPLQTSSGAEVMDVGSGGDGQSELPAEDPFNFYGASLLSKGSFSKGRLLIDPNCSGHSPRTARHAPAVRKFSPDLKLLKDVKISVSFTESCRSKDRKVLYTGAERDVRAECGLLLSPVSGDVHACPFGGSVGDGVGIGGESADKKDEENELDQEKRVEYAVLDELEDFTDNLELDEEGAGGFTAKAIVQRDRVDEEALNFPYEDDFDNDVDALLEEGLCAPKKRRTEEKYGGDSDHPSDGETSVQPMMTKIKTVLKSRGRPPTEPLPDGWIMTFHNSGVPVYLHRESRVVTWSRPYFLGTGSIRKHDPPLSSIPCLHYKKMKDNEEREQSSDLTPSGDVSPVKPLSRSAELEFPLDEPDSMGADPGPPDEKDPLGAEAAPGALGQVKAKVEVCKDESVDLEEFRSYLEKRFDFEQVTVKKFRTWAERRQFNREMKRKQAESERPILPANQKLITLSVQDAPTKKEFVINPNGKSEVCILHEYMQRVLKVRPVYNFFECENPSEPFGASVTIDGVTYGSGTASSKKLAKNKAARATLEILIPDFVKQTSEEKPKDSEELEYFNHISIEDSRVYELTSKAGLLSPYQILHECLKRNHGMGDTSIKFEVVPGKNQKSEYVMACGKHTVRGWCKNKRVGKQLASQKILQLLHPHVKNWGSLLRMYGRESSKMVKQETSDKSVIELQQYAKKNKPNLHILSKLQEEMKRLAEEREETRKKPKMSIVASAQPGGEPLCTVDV
UniProt Q6UWP2: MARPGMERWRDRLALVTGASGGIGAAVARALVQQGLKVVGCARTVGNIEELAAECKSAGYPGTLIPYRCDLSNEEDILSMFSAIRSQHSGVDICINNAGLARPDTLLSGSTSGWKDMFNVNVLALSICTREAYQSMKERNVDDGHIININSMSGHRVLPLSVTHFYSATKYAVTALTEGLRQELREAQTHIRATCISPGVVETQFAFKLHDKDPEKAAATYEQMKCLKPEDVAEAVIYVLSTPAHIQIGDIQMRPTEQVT
UniProt O75064: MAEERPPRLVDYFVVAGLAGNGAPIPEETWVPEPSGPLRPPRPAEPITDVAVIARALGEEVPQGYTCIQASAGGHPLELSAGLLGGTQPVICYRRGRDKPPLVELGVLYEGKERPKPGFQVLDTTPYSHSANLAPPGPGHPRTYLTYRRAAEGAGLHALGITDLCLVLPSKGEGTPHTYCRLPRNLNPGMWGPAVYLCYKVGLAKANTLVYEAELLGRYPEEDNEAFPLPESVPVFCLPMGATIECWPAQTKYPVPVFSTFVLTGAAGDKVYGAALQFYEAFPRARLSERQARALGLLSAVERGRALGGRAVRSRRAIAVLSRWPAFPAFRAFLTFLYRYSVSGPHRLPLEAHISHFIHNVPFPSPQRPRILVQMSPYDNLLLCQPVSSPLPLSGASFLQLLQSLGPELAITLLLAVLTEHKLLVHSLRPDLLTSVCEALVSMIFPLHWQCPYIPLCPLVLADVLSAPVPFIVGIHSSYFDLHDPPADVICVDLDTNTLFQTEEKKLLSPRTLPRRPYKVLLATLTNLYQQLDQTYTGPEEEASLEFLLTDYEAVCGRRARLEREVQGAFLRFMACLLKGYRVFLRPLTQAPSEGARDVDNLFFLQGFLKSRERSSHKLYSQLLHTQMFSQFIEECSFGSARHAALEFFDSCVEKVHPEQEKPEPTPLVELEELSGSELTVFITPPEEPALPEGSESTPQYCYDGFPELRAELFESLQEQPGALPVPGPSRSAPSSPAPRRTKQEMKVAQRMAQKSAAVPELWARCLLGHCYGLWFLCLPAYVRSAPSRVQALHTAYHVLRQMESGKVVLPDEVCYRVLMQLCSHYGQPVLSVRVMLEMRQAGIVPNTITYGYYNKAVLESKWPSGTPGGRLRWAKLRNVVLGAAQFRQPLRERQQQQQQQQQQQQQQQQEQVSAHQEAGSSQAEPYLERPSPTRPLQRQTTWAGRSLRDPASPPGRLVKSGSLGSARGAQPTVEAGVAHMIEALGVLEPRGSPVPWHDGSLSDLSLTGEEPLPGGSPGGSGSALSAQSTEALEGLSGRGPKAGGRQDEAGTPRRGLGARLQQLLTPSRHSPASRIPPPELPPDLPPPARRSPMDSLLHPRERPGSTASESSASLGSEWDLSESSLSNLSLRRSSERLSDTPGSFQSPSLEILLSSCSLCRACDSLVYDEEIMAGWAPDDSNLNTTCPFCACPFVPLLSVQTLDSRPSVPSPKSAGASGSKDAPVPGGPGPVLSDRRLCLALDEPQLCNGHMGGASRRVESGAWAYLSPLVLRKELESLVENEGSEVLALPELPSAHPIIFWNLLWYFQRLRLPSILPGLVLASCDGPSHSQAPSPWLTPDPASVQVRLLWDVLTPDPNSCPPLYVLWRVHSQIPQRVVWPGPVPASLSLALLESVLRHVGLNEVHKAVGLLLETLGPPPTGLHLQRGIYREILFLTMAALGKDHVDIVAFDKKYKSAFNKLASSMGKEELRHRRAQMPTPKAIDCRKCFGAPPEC
UniProt Q9UPY3: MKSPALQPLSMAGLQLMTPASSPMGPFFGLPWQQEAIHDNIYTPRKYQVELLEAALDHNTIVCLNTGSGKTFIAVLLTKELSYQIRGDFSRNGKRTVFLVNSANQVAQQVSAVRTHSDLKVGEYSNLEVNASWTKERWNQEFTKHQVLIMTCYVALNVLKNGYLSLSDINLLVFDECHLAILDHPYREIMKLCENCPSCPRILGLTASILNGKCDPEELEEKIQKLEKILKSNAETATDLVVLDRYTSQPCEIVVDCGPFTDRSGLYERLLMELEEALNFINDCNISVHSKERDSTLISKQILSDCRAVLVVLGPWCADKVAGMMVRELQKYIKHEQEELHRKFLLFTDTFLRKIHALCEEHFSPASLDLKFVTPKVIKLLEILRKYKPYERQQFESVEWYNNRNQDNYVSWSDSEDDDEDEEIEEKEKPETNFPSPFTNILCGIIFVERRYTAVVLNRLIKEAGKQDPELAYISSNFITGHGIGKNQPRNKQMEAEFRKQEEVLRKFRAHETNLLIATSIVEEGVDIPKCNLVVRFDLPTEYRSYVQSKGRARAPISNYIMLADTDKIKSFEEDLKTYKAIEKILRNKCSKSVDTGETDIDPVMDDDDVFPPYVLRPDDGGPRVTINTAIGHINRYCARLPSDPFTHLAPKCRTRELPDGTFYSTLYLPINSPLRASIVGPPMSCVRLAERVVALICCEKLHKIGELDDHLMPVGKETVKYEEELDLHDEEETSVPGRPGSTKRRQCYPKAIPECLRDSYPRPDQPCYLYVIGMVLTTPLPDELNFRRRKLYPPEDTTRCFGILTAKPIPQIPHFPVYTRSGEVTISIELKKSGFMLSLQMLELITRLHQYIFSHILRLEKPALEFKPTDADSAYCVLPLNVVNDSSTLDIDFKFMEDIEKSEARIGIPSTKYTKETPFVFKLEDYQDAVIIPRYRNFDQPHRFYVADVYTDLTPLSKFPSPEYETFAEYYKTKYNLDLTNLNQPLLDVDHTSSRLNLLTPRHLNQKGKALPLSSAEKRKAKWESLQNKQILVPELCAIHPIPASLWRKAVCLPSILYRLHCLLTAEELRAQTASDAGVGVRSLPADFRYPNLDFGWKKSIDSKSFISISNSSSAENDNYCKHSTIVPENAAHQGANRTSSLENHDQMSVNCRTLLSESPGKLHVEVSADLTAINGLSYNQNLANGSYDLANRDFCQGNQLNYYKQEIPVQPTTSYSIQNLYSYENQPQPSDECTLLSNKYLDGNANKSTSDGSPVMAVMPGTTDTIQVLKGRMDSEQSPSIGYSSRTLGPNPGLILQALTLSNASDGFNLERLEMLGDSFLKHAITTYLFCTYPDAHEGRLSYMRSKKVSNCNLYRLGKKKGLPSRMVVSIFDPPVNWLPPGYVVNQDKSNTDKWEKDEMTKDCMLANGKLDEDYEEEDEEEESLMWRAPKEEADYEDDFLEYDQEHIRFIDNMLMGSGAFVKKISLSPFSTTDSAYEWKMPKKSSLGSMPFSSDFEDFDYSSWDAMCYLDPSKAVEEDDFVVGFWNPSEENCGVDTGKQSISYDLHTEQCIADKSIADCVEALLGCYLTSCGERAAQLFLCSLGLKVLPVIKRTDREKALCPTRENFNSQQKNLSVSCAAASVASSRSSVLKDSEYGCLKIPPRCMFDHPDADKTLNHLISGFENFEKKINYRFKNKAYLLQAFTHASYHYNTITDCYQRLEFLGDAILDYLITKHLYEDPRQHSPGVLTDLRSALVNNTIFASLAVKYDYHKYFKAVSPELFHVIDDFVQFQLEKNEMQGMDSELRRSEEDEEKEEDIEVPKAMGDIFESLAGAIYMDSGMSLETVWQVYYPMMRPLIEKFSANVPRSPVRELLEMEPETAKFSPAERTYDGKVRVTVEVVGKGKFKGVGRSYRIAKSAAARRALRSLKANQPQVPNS
UniProt Q9UHI6: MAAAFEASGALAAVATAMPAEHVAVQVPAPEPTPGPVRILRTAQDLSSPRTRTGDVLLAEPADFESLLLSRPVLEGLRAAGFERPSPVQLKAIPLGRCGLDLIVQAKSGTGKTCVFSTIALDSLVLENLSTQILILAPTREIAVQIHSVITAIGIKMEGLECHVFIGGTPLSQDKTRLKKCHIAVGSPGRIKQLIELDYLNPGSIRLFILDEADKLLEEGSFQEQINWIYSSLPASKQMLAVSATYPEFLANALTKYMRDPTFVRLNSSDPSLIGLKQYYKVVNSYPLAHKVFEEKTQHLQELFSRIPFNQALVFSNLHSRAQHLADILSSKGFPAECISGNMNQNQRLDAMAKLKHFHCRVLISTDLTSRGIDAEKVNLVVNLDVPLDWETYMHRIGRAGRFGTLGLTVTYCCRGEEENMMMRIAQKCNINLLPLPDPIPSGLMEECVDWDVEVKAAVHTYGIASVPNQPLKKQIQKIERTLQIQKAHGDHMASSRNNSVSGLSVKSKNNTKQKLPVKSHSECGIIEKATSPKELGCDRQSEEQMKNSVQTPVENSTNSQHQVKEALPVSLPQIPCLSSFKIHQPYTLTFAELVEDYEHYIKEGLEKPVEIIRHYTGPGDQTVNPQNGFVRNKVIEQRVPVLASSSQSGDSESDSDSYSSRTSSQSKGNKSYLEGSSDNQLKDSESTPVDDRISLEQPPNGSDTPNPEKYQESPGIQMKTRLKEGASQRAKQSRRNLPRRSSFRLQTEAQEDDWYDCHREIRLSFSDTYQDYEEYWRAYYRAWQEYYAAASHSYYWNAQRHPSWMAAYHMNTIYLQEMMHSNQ
UniProt Q13574: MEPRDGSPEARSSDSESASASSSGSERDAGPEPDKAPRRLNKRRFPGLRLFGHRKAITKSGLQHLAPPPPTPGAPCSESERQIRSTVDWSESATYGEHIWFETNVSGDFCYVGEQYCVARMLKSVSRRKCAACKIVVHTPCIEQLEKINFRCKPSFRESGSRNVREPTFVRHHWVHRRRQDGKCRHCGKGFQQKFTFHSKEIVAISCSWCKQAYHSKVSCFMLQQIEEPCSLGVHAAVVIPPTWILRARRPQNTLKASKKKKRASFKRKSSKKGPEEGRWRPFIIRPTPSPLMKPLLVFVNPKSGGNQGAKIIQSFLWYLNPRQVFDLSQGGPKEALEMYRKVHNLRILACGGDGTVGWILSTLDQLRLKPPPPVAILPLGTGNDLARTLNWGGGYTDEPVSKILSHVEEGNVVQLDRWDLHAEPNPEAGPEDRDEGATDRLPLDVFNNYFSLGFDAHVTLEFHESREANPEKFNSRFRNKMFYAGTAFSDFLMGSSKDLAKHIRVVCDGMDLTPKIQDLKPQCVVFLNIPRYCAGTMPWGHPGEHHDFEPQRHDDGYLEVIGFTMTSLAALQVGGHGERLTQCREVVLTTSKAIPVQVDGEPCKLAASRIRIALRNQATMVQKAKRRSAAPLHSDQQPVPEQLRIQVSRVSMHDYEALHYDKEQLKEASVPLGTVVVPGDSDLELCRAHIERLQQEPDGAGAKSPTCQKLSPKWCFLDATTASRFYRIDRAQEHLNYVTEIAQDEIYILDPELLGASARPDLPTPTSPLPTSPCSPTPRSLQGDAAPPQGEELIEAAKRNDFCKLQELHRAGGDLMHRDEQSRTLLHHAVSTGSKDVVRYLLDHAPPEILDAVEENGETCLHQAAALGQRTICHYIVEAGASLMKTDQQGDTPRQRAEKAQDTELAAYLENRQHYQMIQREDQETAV
UniProt O00273: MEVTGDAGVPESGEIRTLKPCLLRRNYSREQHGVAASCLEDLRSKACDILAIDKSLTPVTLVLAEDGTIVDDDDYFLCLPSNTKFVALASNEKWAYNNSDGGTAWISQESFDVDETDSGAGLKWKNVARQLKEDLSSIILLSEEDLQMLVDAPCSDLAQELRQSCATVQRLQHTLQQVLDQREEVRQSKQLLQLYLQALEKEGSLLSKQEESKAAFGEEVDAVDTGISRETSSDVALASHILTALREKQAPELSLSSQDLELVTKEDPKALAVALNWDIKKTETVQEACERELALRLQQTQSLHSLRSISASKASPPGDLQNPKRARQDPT

The other results are listed elsewhere or left out.

Compound in the first assay: CNC(=O)C1=CC=CC=C1NC2=NC(=NC=C2Cl)NC3=C(C=C(C=C3)N4CCOCC4)OC
The experiment in a line: log2 fold change, soluble protein after heating vs DMSO (PISA); higher = thermal stabilisation; K562 cells, 10 uM, 30 min; active = over 0.2 and 3.5 SD of the protein, either way, in both replicates (recomputed). The gist of the method:
(§1)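 K562 cells at 2×10^6 cells/mL were treated with 10 μM compound for 30 min. Aliquots were heated for 3 min across 48°C-58°C, pooled, and extracted in PBS with 0.5% NP-40 at 4°C; soluble protein was the supernatant after 21,000xg for 90 min. Soluble protein was quantified by TMTpro 16plex LC-MS/MS with channel sums equalised, and reported as log2 fold change in thermal stability against DMSO controls, with values from duplicates.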
For the target DGCR8 (UniProt Q8WYQ5), the log2 fold change was inactive: -0.03.

For DENND6A (UniProt Q8IWF6), the log2 fold change is inactive: 0.079.

In the case of DHX57 (UniProt Q6P158), the log2 fold change is inactive: 0.071.

With DHRS11 (UniProt Q6UWP2), the log2 fold change was inactive: -0.098.

In the case of DENR (UniProt O43583), the log2 fold change was inactive: -0.046.

Consider DHX15 (UniProt O43143), for which the log2 fold change was inactive: 0.005.

On to DEK (UniProt P35659), for which the log2 fold change was inactive: -0.022.

On to DENND4C isoform 7 (UniProt Q5VZ89), for which the log2 fold change is inactive: 0.048.

As to DDX21 (UniProt Q9NR30), the log2 fold change was inactive: -0.094.

In the case of DLG3 (UniProt Q92796), the log2 fold change was inactive: -0.051.

With DENND4B (UniProt O75064), the log2 fold change was inactive: -0.017.

In the case of DDHD2 (UniProt O94830), the log2 fold change was inactive: -0.119.

Take DIDO1 (UniProt Q9BTC0): the log2 fold change was inactive: -0.07.

Regarding DIP2B (UniProt Q9P265), the log2 fold change is inactive: -0.017.

As for DIS3L (UniProt Q8TF46), the log2 fold change is inactive: -0.035.

As for DDT (UniProt P30046), the log2 fold change is inactive: -0.011.

For DDI2 isoform 3 (UniProt Q5TDH0), the log2 fold change is inactive: -0.003.

Consider DDX42 (UniProt Q86XP3), for which the log2 fold change is inactive: 0.007.

For the target DICER1 (UniProt Q9UPY3), the log2 fold change was inactive: -0.097.

In the case of DDX41 (UniProt Q9UJV9), the log2 fold change was inactive: 0.056.

On to DDX20 (UniProt Q9UHI6), for which the log2 fold change is inactive: 0.119.

On to DNAH9 (UniProt Q9NYC9), for which the log2 fold change was inactive: -0.022.

As for DDX19B (UniProt Q9UMR2), the log2 fold change is inactive: -0.039.

With DDX49 (UniProt Q9Y6V7), the log2 fold change is inactive: 0.066.

As for DDAH2 (UniProt O95865), the log2 fold change is inactive: -0.08.

For DHDDS isoform 2 (UniProt Q86SQ9), the log2 fold change is inactive: 0.023.

With DGKZ (UniProt Q13574), the log2 fold change was inactive: 0.006.

In the case of DMTN (UniProt Q08495), the log2 fold change was inactive: -0.025.

As to DMD (UniProt P11532), the log2 fold change was inactive: -0.008.

In the case of DGUOK (UniProt Q16854), the log2 fold change was inactive: -0.032.

For the target DDB2 (UniProt Q92466), the log2 fold change was inactive: -0.08.

As to DNAJA2 (UniProt O60884), the log2 fold change is inactive: 0.003.

With DIMT1 (UniProt Q9UNQ2), the log2 fold change is inactive: 0.019.

For the target DIPK2A (UniProt Q8NDZ4), the log2 fold change was inactive: -0.025.

With DHX8 (UniProt Q14562), the log2 fold change was inactive: -0.066.

For the target DFFA (UniProt O00273), the log2 fold change is inactive: -0.044.

DDX23 (UniProt Q9BUQ8): the log2 fold change was inactive: 0.047.

On to DMXL2 isoform 3 (UniProt Q8TDJ6), for which the log2 fold change is inactive: -0.092.

As to DERL1 (UniProt Q9BUN8), the log2 fold change is inactive: -0.067.

Compound in another assay: CNC(=O)c1ccc(Nc2ncc(C(F)(F)F)c(NCc3nccnc3N(C)S(C)(=O)=O)n2)cc1 [defactinib]
The description is as above. The method in brief: as §1
As for DGCR8 (UniProt Q8WYQ5), the log2 fold change was inactive: 0.02.

On to DENND6A (UniProt Q8IWF6), for which the log2 fold change was inactive: 0.066.

As for DHX57 (UniProt Q6P158), the log2 fold change is inactive: 0.132.

With DHRS11 (UniProt Q6UWP2), the log2 fold change is inactive: -0.025.

DENR (UniProt O43583): the log2 fold change is inactive: -0.028.

DHX15 (UniProt O43143): the log2 fold change is inactive: 0.044.

DEK (UniProt P35659): the log2 fold change is inactive: -0.136.

Turning to DENND4C isoform 7 (UniProt Q5VZ89), the log2 fold change was inactive: -0.118.

DDX21 (UniProt Q9NR30): the log2 fold change is inactive: 0.47.

Turning to DLG3 (UniProt Q92796), the log2 fold change is inactive: 0.022.

For DENND4B (UniProt O75064), the log2 fold change is inactive: -0.053.

Take DDHD2 (UniProt O94830): the log2 fold change is inactive: -0.038.

Take DIP2B (UniProt Q9P265): the log2 fold change was inactive: -0.041.

DIS3L (UniProt Q8TF46): the log2 fold change is inactive: -0.037.

In the case of DDT (UniProt P30046), the log2 fold change is inactive: 0.006.

As to DDI2 isoform 3 (UniProt Q5TDH0), the log2 fold change is inactive: -0.064.

Regarding DICER1 (UniProt Q9UPY3), the log2 fold change was inactive: -0.095.

Consider DDX41 (UniProt Q9UJV9), for which the log2 fold change was inactive: -0.01.

With DNAH9 (UniProt Q9NYC9), the log2 fold change was inactive: -0.009.

For the target DDX19B (UniProt Q9UMR2), the log2 fold change was inactive: -0.056.

For DDX49 (UniProt Q9Y6V7), the log2 fold change is inactive: 0.091.

Turning to DDAH2 (UniProt O95865), the log2 fold change was inactive: 0.01.

As to DHDDS isoform 2 (UniProt Q86SQ9), the log2 fold change is inactive: -0.039.

On to DGKZ (UniProt Q13574), for which the log2 fold change is inactive: 0.206.

For DMTN (UniProt Q08495), the log2 fold change was inactive: -0.06.

On to DMD (UniProt P11532), for which the log2 fold change was inactive: -0.05.

With DGUOK (UniProt Q16854), the log2 fold change was inactive: 0.

Turning to DDB2 (UniProt Q92466), the log2 fold change is inactive: 0.06.

For DNAJA2 (UniProt O60884), the log2 fold change is inactive: -0.058.

On to DIMT1 (UniProt Q9UNQ2), for which the log2 fold change was inactive: 0.29.

As to DIPK2A (UniProt Q8NDZ4), the log2 fold change was inactive: 0.048.

On to DHX8 (UniProt Q14562), for which the log2 fold change was inactive: 0.066.

For DFFA (UniProt O00273), the log2 fold change is inactive: -0.029.

With DDX23 (UniProt Q9BUQ8), the log2 fold change is inactive: 0.26.

With DMXL2 isoform 3 (UniProt Q8TDJ6), the log2 fold change was inactive: 0.018.

For DERL1 (UniProt Q9BUN8), the log2 fold change was inactive: 0.022.
